Values quoted from earlier work as cited in publication PMC4684479 (Molecular imaging and biology : MIB : the official …, 2016).

Conditions: pigs; cited from earlier work

## CC1(C)C(/C=C/C=C/C=C/C=C2\N(CCCCS(=O)(=O)[O-])c3ccc4ccccc4c3C2(C)C)=[N+](CCCCS(=O)(=O)[O-])c2ccc3ccccc3c21.[Na+] [ICG]
  blood half-life (t1/2β): 3.6 min
